Values joined by “and” are separate entries in the source; they are usually repeats but may differ in a detail not shown here. Equal entries are not always repeated. Screen size: about 300,000 compounds; about 5,400 (1.8%) were called active. The inconclusive results got no clear call from the source; some entries with a clear call stand among them for comparison. Calls follow the shape of the full dose curve; tested in HEK293 cells. A potency beside an inconclusive call is a rough fit, not a confirmed value.
Assay: qHTS for inhibitors of binding or entry into cells for Marburg Virus
Details: Marburg virus pseudotyped entry inhibition, cell reporter; series mostly up to 37.8 µM
Potency is read from the fitted curve at half-maximal effect.

Structure (SMILES) | Potency
Cc1ccc(NC(=O)CN(C)C(=O)Cc2ccc3c(c2)CCC3)cc1 | inconclusive: 14.1 µM [activator, partial curve, poor fit]
Cc1ccc(-n2nc(CO)c(C(=O)NCc3ccccn3)n2)cc1C | inconclusive: 1 µM [activator, full curve, poor fit]
COc1cccc(OC)c1C(=O)NC(=S)Nc1ccc2c(c1)C(=O)N(C)C2=O | inconclusive: 1.41 µM [activator, single point]
COc1ccc(Cl)cc1NC(=O)CN(C)C(=O)CCCc1c[nH]c2ccccc12 | inconclusive: 35.5 µM [inhibitor, single point]
CC(C)c1ccc(NS(=O)(=O)c2ccc(N3C(=O)CCC3=O)cc2)cc1 | inconclusive: 1.78 µM [activator, partial curve, poor fit]
O=C(OCC(=O)N1CCc2ccccc21)c1ccc[n+]([O-])c1 | inactive
O=c1c(-c2ccc(Cl)cc2)coc2c(CN3CCOCC3)c(O)ccc12 | inconclusive: 0.0891 µM [activator, full curve, poor fit]
CCc1ccc(-n2nc3cc(C)c(NC(=O)c4cccc5ccccc45)cc3n2)cc1 | inconclusive: 3.16 µM [activator, partial curve, poor fit]
C=CCc1ccccc1OCC(=O)NNC(=S)NCc1ccccc1 | inconclusive: 17.8 µM [inhibitor, partial curve, poor fit]
COc1ccc(-n2c(C)cc(C(=O)C[N+]34CCN(CC3)CC4)c2C)cc1 | inconclusive: 6.31 µM [inhibitor, single point]
CCOc1ccc(S(=O)(=O)NCCC(=O)NCCc2ccc(C(C)C)cc2)cc1 | inconclusive: 7.94 µM [inhibitor, partial curve]
CC1(c2cccc(Br)c2)NC(=O)N(CC(=O)N2CCc3ccccc32)C1=O (stereo not drawn) | inconclusive: 31.6 µM [inhibitor, single point]
COc1ccc(NC(=O)c2cccnc2)cc1 | inconclusive: 15.8 µM [activator, partial curve, poor fit]
CCC(C)c1ccccc1NC(=O)COC(=O)C1=NN(c2ccccc2)C(=O)CC1 (stereo not drawn) | inactive
CCn1c(C)nc2c(C)[n+](CC(=O)c3ccc(Br)cc3)ccc21 | inconclusive: 6.31 µM [activator, single point]
CCOC(=O)c1c(C)[nH]c(C(=O)COC(=O)CSC)c1C | inconclusive: 3.16 µM [inhibitor, single point]
Cc1cccc(NC(=O)C2CCN(S(=O)(=O)c3c(C)[nH]c(=O)[nH]c3=O)CC2)c1 | inconclusive: 0.562 µM [inhibitor, full curve, poor fit]
c1ccc(CCCNc2ncccn2)cc1 | inactive
CC(=O)Nc1nc2ccccc2n1Cc1ccccc1Cl | inconclusive: 35.5 µM [inhibitor, single point]
O=C1CCC(=O)N1OCCCCOc1ccccc1 | inconclusive: 3.16 µM [activator, single point]
COc1ccccc1N(CC(=O)Nc1ccccc1C)S(C)(=O)=O | inactive
CCN(CC)S(=O)(=O)c1ccc(OC)c(NC(=O)c2ccc(OC)c([N+](=O)[O-])c2)c1 | inconclusive: 22.4 µM [inhibitor, single point]
O=[N+]([O-])c1cccc(-c2noc(COc3ccccc3)n2)c1 | inconclusive: 12.6 µM [activator, partial curve, poor fit]

Structure (SMILES) | Potency
C=CCOc1ccc([C@H]2/C(=C(/O)c3ccc(F)cc3)C(=O)C(=O)N2CCCN(C)C)cc1 | inactive
CC1CCCCC1NC(=O)COC(=O)CNC(=O)c1cccc(F)c1 (stereo not drawn) | inactive
Cc1c(C(=O)N(Cc2ccccc2F)C2CCS(=O)(=O)C2)oc2ccc(F)cc12 (stereo not drawn) | inconclusive: 3.55 µM [activator, single point]
CC(C)(C)c1ccc(OCCNC(=O)Cc2ccc(F)cc2)cc1 | inconclusive: 0.891 µM [inhibitor, full curve, poor fit]
CC(=O)N1N=C(c2ccc3ccccc3c2)OC1(C)C | inactive
Cc1cccc(C(=O)N[C@H](C(=O)Nc2ccc(C)c(S(=O)(=O)N3CCOCC3)c2)C(C)C)c1 | inconclusive: 35.5 µM [inhibitor, single point]
CCC(CC)NC(=O)c1cccc(Br)c1 | inactive
O=C(c1cccc(S(=O)(=O)N2CCCCC2)c1)N(CCc1ccccc1)Cc1ccccc1 | inconclusive: 6.31 µM [inhibitor, partial curve]
CCS(=O)(=O)N1CCN(C(C)CCc2ccccc2)CC1 (stereo not drawn) | inactive
Cc1cccc(OC(C)C(=O)Nc2ccc(S(=O)(=O)N3CCCC3)cc2)c1 (stereo not drawn) | inconclusive: 35.5 µM [inhibitor, single point]
O=C(CN1C(=O)NC2(CCCCCCC2)C1=O)NC(=O)NCc1ccco1 | inactive
CCCCCC(=O)NNC(=O)c1c(O)c2ccccc2n(CC)c1=O | inactive
O=C(NCc1ccco1)c1ccc(COc2ccccc2Cl)cc1 | inactive
Nc1nc(Nc2ccccc2F)sc1C(=O)c1ccc(Cl)cc1 | inconclusive: 35.5 µM [activator, partial curve, poor fit]
Clc1ccc(-c2nsc(N3CCOCC3)n2)c(Cl)c1 | inconclusive: 15.8 µM [inhibitor, single point]
CCc1cccc(NC(=O)C2CCN(C(=O)c3cnn(-c4ccccc4)c3-n3cccc3)CC2)c1 | inactive
COc1ccc2[nH]c3c(C)c4cc[n+](C)cc4c(C)c3c2c1 | inconclusive: 0.794 µM [activator, full curve, poor fit]
COc1cc(Cl)c(C)cc1NC(=O)CSc1nnc(-c2ccco2)n1CC(C)C | inconclusive: 32.6 µM [inhibitor, single point]
Clc1ccc(/C(Cc2nc3ccccc3[nH]2)=N\Nc2ccccc2)cc1 | inconclusive: 20 µM [inhibitor, single point]
COc1ccc(NC(=O)c2ccc(NC(=O)C(C)C)cc2)c([N+](=O)[O-])c1 | inactive
CCOC(=O)C1CCCN(C(=O)c2nn(-c3ccc(OC)cc3)c(=O)c3c2c2ccccc2n3C)C1 (stereo not drawn) | inactive
CCCC=Cc1ccc(CN2C(CC(C)C)C(=O)N(Cc3cn(CCOCOC)nn3)CCS2(=O)=O)cc1 (stereo not drawn) | inconclusive: 2.23 µM [inhibitor, full curve, poor fit]
Cc1ccc(NC(=O)CSc2nc3ccccc3c(=O)n2CCCN2CCCCC2)cc1C | inconclusive: 5.17 µM [inhibitor, full curve, poor fit]

Retrieved one by one from above:
Structure (SMILES) | Potency
CC(C)(C)c1ccc(OCCNC(=O)Cc2ccc(F)cc2)cc1 | inconclusive: 0.891 µM [inhibitor, full curve, poor fit]
CC(=O)N1N=C(c2ccc3ccccc3c2)OC1(C)C | inactive

Continued:

Structure (SMILES) | Potency
Cc1cc(C(=O)OCC(=O)Nc2ccccc2C(F)(F)F)on1 | inactive
CC(=O)c1ccc(OCC(O)COc2ccc(C(C)=O)cc2)cc1 | inactive
COc1cc(NC(=O)CN2C(=O)CN(C)C2=O)c(C)cc1[N+](=O)[O-] | inconclusive: 11.2 µM [activator, partial curve, poor fit]
CSc1ccc(CN2CCC(N3CC(C)OC(C)C3)CC2)cc1 (stereo not drawn) | inconclusive: 5.01 µM [inhibitor, partial curve, poor fit]
Cc1cc(C)nc(N/N=C/c2sccc2C)n1 | inconclusive: 3.55 µM [activator, single point]
Cc1ccc2nc3sc(C(=O)Nc4c(C)[nH]c(=O)[nH]c4=O)c(N)c3cc2c1 | inconclusive: 25.1 µM [activator, single point]
O=C(NCC(c1ccco1)N1CCN(c2ccccc2F)CC1)C(=O)NC1CC1 (stereo not drawn) | inactive
C/C(=N\NC(=O)c1ccc(Br)o1)c1cc2c(cc1NC(=O)CCC(=O)O)OCO2 | inactive
COc1cc(C(=O)N2CCN(c3cccc(C(F)(F)F)c3)CC2)ccc1OCC(=O)N1CCOCC1 | inconclusive: 22.4 µM [activator, partial curve, poor fit]
O=C(Cc1noc2ccccc12)Nc1ccc2ccccc2c1 | inconclusive: 29.1 µM [inhibitor, single point]
CCc1cc2cc(C)cc(C)c2nc1SCC(=O)Nc1cc(C)on1 | inconclusive: 31.6 µM [inhibitor, partial curve, poor fit]
Cn1c(NCCO)nc2c1c(=O)n(Cc1ccccc1Cl)c(=O)n2C | inactive
COC(=O)[C@@]1(Cc2ccc(OC)cc2)[C@H]2c3cc(C(=O)N(C)C)n(C[C@H](O)CO)c3C[C@H]2CN1C(=O)c1ccccc1 | inactive
CC(=O)c1c(C(C)=O)c(C)n(NC(=O)c2ccc(Cl)cc2)c1C | inactive
COC(=O)COc1cccc(NC(=O)c2ccccc2)c1 | inconclusive: 29.1 µM [activator, single point]
CN1C2CCC1CC(OC(=O)c1c[nH]c3ccccc13)C2 (stereo not drawn) | inconclusive: 259 nM [inhibitor, single point] and inconclusive: 31.6 nM [inhibitor, full curve, poor fit] and inconclusive: 5.8 µM [inhibitor, partial curve, poor fit]
CCC(=O)N(Cc1cc2ccccc2[nH]c1=O)c1ccccc1OC | inconclusive: 1.26 µM [activator, single point]
Cc1ccc(C(=O)NCCN(C)C)c(C)c1 | inactive
COc1ccccc1NC(=O)Cn1nnc(C(=O)NCc2ccc3c(c2)OCO3)c1N | inactive
Cc1ccnn1C(C)C(=O)O (stereo not drawn) | inactive
CCC(C)/C(C)=N/NC(=O)c1ccc(COc2ccc(Cl)c(C)c2)cc1 (stereo not drawn) | inconclusive: 20 µM [inhibitor, single point]
CCc1c(C)sc2nc3c(C(=O)N4CCOCC4)cc(C(=O)c4ccccc4O)cn3c(=O)c12 | inconclusive: 35.5 µM [inhibitor, single point]
